Reference: PubChem BioAssay AID493014 (National Center for Advancing Translational Sciences (NCATS), 2011)
The whole screen tested about 340,000 compounds, of which about 170 (0.05%) were called active. The shares of active, inactive and inconclusive entries below differ from those in the screen. Calls come from the whole dose curve; as a rule, active = well fitted inhibition curve with a large enough effect in the signal ratio, with a control signal flat (not every such curve was filed as active); inconclusive = small, poorly fitted or top-dose-only effect, or effect the other way, or a change in a side signal; inactive = flat fitted curve, though single readings scatter; the % refers to the signal ratio. A potency beside an inconclusive call is a rough fit, not a confirmed value.

Test: qHTS Assay to Find Inhibitors of Chronic Active B-Cell Receptor Signaling;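 for activity change, negative = inhibition: plate controls were basal doxycycline-induced cells for no effect and cells given 10 µM MG132 for full effect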
Details: ABC-DLBCL IkBa-CBG/CBR reporter, luminescence ratio (green luciferase fused to IkBa over red control in TMD8 lymphoma cells), 4 h; activity change, negative = inhibition: at 46.1 µM (top of the series)
How it was run: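 Compounds up to 46 uM were incubated four hours with TMD8 cells whose green CBG68 luciferase is fused to IkappaBalpha; red CBR luminescence normalised the signal, and concentration-effect curves were fitted to fusion, red and ratio data.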
Potency is the fitted concentration of half-maximal effect.

SMILES	Potency	activity change, negative = inhibition
O=C(N/N=C/c1cccs1)c1ccccn1	inconclusive: 11.2 µM [falling, partial curve]	
O=C(c1cccnc1)N1CCN(c2ccc3ccccc3n2)CC1		inconclusive: 5.23%
CS(=O)(=O)c1cnc2c(-c3ccsc3)cnn2c1N		inconclusive: -1.35%
O=C(Nc1cc(S(=O)(=O)Nc2ccc(Cl)cc2)ccc1O)c1ccc(F)cc1F		inactive: 0.136%
CCCc1ccc(-c2cc(C(=O)N/N=C/c3ccc([N+](=O)[O-])o3)c3ccccc3n2)cc1		inconclusive: -9.73%
CCOC(=O)C1CCCN(Cc2cc(Br)ccc2OC)C1 (stereo unspecified)		inconclusive: 15.7%
CC(C)(C)[C@H](N)C(=O)N[C@H]1CCC2C3CC=C4C[C@@H](O)CC[C@]4(C)C3CC[C@@]21C (stereo partly specified)	inconclusive: 32.6 µM [activator, partial curve, poor fit]	
COCCn1c(-c2cccs2)nc2nc3ccccc3nc21		inactive: 6.46%
CC(=O)N1N=C(c2ccc(C)cc2)OC1c1ccc(C(C)C)cc1 (stereo unspecified)		inactive: 0.767%
COc1cc(C(=O)O[C@H]2C/C(C)=C/CC[C@@]3(C)O[C@@H]3[C@H](O)[C@@H]2C(C)C)cc(OC)c1OC		inactive: -14%
CCNC(=S)NNC(=O)CCn1c2ccccc2c2ccccc21	inconclusive: 20 µM [falling, single point]	
CCN(CC(=O)Nc1cc(Cl)ccc1C)C(=O)CSCc1ccccc1		inconclusive: -0.409%
O=C(CCCl)Nc1nc2c(s1)CCc1ccccc1-2		inconclusive: 3.16%
OC(CNC1Cc2ccccc2C1)c1ccccc1 (stereo unspecified)		inconclusive: 1.35%
Cc1cc(N2C(=O)C(O)=C(C(=O)c3ccco3)C2c2ccc(O)cc2)no1 (stereo unspecified)	inconclusive: 17.8 µM [falling, single point]	
Cc1ccc(NC(=O)CCn2cccc2)cc1F		inconclusive: 14%
COc1cc(C(=O)NCC(c2cccs2)S(=O)(=O)c2cccs2)cc(OC)c1OC (stereo unspecified)		inactive: 0.0247%
COc1cccc(Nc2nc(-c3sc(N)nc3C)cs2)c1	inconclusive: 18.4 µM [falling, single point]	
COc1nc2ccccc2cc1-c1noc(-c2cccnc2)n1		inactive: 4.21%
CCCCCC(=O)NC(Nc1ccc(S(N)(=O)=O)cc1)C(Cl)(Cl)Cl (stereo unspecified)		inactive: -5%
COc1cc(/C=C(\C#N)c2nc3ccccc3[nH]2)cc(OC)c1O		inconclusive: -0.715%
Cc1cc(C)cc(NC(=O)CSc2ccccc2)c1	inconclusive: 2.51 µM [rising, partial curve, poor fit]	
Cc1cc(NC(=O)CSc2ccccn2)no1		inconclusive: 7.81%
COc1ccc2c(-c3ccc(OCCN4CCOCC4)cc3)c(-c3ccccc3OC)sc2c1	inconclusive: 29.1 µM [falling, partial curve, poor fit]	
OCc1nn2c(c1Br)NC(c1ccccc1)CC2C(F)(F)F (stereo unspecified)		inconclusive: 4.56%
CCCC(c1nnnn1Cc1ccco1)N1CCN(c2ccccc2)CC1 (stereo unspecified)		inactive: 1.81%

SMILES	Potency	activity change, negative = inhibition
COc1cccc(/C=C2\SC(=O)N(CCC(=O)NNC(=O)c3ccccc3Cl)C2=O)c1	inconclusive: 23.1 µM [falling, partial curve, poor fit]	
c1ccc(-c2noc(-c3cccc4ccccc34)n2)cc1	inconclusive: 32.6 µM [falling, partial curve, poor fit]	
CC(=O)Oc1ccc(-c2csc(Nc3cccc(C)n3)n2)cc1	inconclusive: 12.6 µM [falling, partial curve]	
COc1cc2c(cc1OC)C1O[C@](c3ccsc3)(C2)Oc2c1c(=O)oc1ccc(F)cc21		inactive: 25.6% [at 9.22 µM]
CC(C)CCNC(=O)c1onc(CSc2ccc(F)c(F)c2)c1C(=O)NCCC(C)C		inconclusive: 5.73%
CCOc1ccc(C(=O)Nc2ccc3[nH]ncc3c2)cc1	inconclusive: 1.78 µM [falling, partial curve, poor fit]	
OC(COc1ccc2cc(Br)ccc2c1)CN1CCCC1 (stereo unspecified)	inconclusive: 29.1 µM [falling, single point]	
Nc1ccc(-c2nc3ccc(-c4nc5ccccc5o4)cc3[nH]2)cc1		inconclusive: 13.3%
CCCNC(=O)Cc1ccsc1	inconclusive: 6.51 µM [falling, single point]	
COc1ccc(-c2cc(C(C)=O)c(C)n2CCC(=O)Nc2cc(Cl)ccc2C)cc1	inconclusive: 35.5 µM [falling, single point]	
CN(C)CCCNC(=S)Nc1ccc(-c2ccccc2)cc1		inconclusive: -19.9%
CN1CCN(C(=S)c2ccc(-c3cccc(Cl)c3Cl)o2)CC1		inconclusive: -3.07%
Oc1c(C=NCc2ccccc2)sc2ccccc12	inconclusive: 15.8 µM [falling, partial curve]	
COc1ccc(CCNC(=O)CSc2nnc3ccc(-c4ccccn4)nn23)cc1		inconclusive: 0.422%
Clc1cccc(CN2CCN(c3nc4nonc4nc3NC3CC3)CC2)c1		inconclusive: 8.67%
O=C(Nc1ccccc1OC(F)F)c1ccc(S(=O)(=O)N2CCOCC2)cc1		inactive: -7.69%
O=C(Cc1ccccc1)NC(Nc1cccc2ccccc12)C(Cl)(Cl)Cl (stereo unspecified)		inconclusive: -16.8%
Cc1ccc2c(c1)NC(=O)C(CC(=O)Nc1ccc(Br)c(C)c1)O2 (stereo unspecified)		inconclusive: 7.5%
COC(=O)c1c(NC(=O)CSc2nc3nc(C)cc(C)n3n2)sc(C)c1C		inconclusive: 4.3%
CSc1ccccc1OCc1cc(C(=O)NC2CCOC(C)(C)C2)no1 (stereo unspecified)	inconclusive: 35.5 µM [falling, partial curve, poor fit]	
NC(=O)CSc1nnc2sc3ccccc3n12		inconclusive: 3.34%
COc1ccccc1C(=O)NNC(=O)c1ccccc1[N+](=O)[O-]	inconclusive: 4.61 µM [falling, full curve]	
Cc1ccc(/C=N/Nc2cccc(C(=O)O)c2)s1		inconclusive: 246%
NCc1ccccc1COc1ccccc1		inactive: 1.87%
C/C(=C1/SC(N2CC(C)OC(C)C2)=NC1=O)c1ccccc1 (stereo unspecified)	inconclusive: 0.00411 µM [rising, full curve, poor fit]	

A second format for some results above:
CC(=O)N1N=C(c2ccc(C)cc2)OC1c1ccc(C(C)C)cc1 (stereo unspecified)
  activity change, negative = inhibition: inactive: 0.767%
COc1cc(C(=O)O[C@H]2C/C(C)=C/CC[C@@]3(C)O[C@@H]3[C@H](O)[C@@H]2C(C)C)cc(OC)c1OC
  activity change, negative = inhibition: inactive: -14%
CCNC(=S)NNC(=O)CCn1c2ccccc2c2ccccc21
  Potency: inconclusive: 20 µM [falling, single point]
